Measurements reported in PMC10715591, “EspB and HtpG interact with the type III-A CRISPR/Cas system of Mycobacterium tuberculosis” (Frontiers in Molecular Biosciences, 2023).
Results are given in words; binding and its absence hold for the method and conditions named. Some entries that bind do so weakly or less than the wild type.

By UniProt entry, the sequences of proteins in these tests, tags left out.
UniProt P9WJD9: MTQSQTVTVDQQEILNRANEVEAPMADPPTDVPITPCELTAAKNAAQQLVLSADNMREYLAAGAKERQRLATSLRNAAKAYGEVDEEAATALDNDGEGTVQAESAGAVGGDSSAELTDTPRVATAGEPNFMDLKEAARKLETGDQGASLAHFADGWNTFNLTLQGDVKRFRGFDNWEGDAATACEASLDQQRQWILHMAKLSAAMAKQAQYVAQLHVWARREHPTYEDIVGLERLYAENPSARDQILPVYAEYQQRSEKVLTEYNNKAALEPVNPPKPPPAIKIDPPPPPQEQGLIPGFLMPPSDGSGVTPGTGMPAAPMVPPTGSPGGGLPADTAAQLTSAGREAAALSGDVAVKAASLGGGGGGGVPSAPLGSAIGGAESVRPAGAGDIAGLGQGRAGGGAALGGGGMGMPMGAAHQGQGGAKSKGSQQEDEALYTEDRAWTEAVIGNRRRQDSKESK

Target: ESX-1 secretion-associated protein EspB (recombinant) (Mycobacterium tuberculosis H37Rv) (UniProt P9WJD9)
Experiment: SPR; Biacore 8K, 25 °C; EspB immobilised covalently on a CM5 chip; analytes (Csm proteins, HtpG) at 25-3,200 nM, 30 μL/min for 2 min; fitted to a 1:1 mass transport model; both purified

B1: MtbCsm2 (natural protein)
chain: MSVIQDDYVKQAEVIRGLPKKKNGFELTTTQLRVLLSLTAQLFDEAQQSANPTLPRQLKEKVQYLRVRFVYQSGREDAVKTFVRNAKLLEALEGIGDSRDGLLRFCRYMEALAAYKKYLDPKDK
**Q.** Which binding does the source give for B1 here?
**A.** binds
